# Measured values taken from PubChem BioAssay AID540276 (National Center for Advancing Translational Sciences (NCATS), 2011).
# Values joined by “and” are separate entries in the source; they are usually repeats but may differ in a detail not shown here. Equal values may be shown once. The whole screen tested about 300,000 compounds, of which about 5,400 (1.8%) were called active. The shares of active, inactive and inconclusive entries below differ from those in the screen. Calls come from the whole dose curve; tested in HEK293 cells. Where the call is inconclusive, the potency comes from a doubtful curve fit.
# Test: qHTS for inhibitors of binding or entry into cells for Marburg Virus
# Conditions: Marburg virus pseudotyped entry inhibition, cell reporter; activity change, negative = inhibition: at 37.8 µM (top of the series) unless noted
# % is set by controls: 0 for no effect and ±100 for the full control effect; potency is the fitted concentration of half-maximal effect.
Compound,"activity change, negative = inhibition",Potency
Cc1ccccc1/C=C/C(=O)N1CCOCC1,inactive: 0.548% [at 46.1 µM],–
COc1cccc(NC(=S)N(CCN(C)C)C(C)c2ccco2)c1 (centres undefined),–,"inconclusive: 2.31 µM [activator, partial curve, poor fit]"
Cc1cc2nnc(SCc3ccc4c(c3)OCO4)n2c2ccccc12,inactive: 1.19% [at 46.1 µM],–
CN1C(=O)C(=Cc2ccccc2OS(=O)(=O)c2ccccc2)C(=O)N(C)C1=O,–,"inconclusive: 35.5 µM [inhibitor, single point]"
CCC(=O)Oc1ccc(-c2nc3ccccc3c(=O)o2)cc1,–,"inconclusive: 3.55 µM [inhibitor, single point]"
CCSc1nnc(NC(=O)C(CC)(C(F)(F)F)C(F)(F)F)s1,–,"inconclusive: 15.8 µM [inhibitor, single point]"
Cc1cc(C(=O)N/N=C/c2cccc(OC(=O)c3ccco3)c2)n[nH]1,–,"inconclusive: 18.3 µM [activator, partial curve, poor fit]"
O=C(Nc1cccc(-c2cccc(Cl)c2)c1)C1CCN(Cc2ccccn2)CC1,–,"inconclusive: 11.2 µM [inhibitor, single point]"
CCCCNC(=O)c1c[nH]c2ccc(S(=O)(=O)Nc3ccc(OCC)cc3)cc2c1=O,–,"inconclusive: 35.5 µM [inhibitor, single point]"
C=CCN1C(=O)C(Cc2cccc(C)c2)SC1=Nc1ccc(C(=O)O)cc1 (centres undefined),–,"inconclusive: 32.6 µM [activator, partial curve, poor fit]"
CCOc1ccc(NC(=O)c2ccc(NC(=S)NC3CC3)cc2)cc1,inactive: -0.291% [at 46.1 µM],–
NC(=O)c1ccccc1OCC(=O)NS(=O)(=O)c1ccc(Cl)cc1,–,"inconclusive: 0.13 µM [inhibitor, single point]"
CCC(C)(C)NC(=O)C(c1ccc(C)cc1)N(Cc1ccco1)C(=O)Cn1nnc2ccccc21 (centres undefined),–,"inconclusive: 35.5 µM [inhibitor, single point]"
CCOC(=O)/C=C/C(=O)OCC(=O)NC(c1ccccc1)c1ccccc1,–,"inconclusive: 35.5 µM [inhibitor, single point]"
Oc1ccc(Br)cc1-c1cc(-c2ccccc2F)[nH]n1,–,inactive
O=C1Nc2ccc(Br)cc2/C1=N\N=C\C1=C(N2CCOCC2)C(=C/c2ccccc2)/CC1,inactive: -11.1% [at 46.1 µM],–
NC(=O)c1ccccc1OC1CCC1,inactive: 10.8% [at 46.1 µM],–
COc1ccc(NC(=S)Nc2cccc(S(=O)(=O)N3CCCCC3)c2)cc1,–,"inconclusive: 35.5 µM [inhibitor, partial curve, poor fit]"
CN1CCN(C(=O)C23CC4CC(C2)CC(c2ccccc2)(C4)C3)CC1,–,"inconclusive: 0.891 µM [inhibitor, partial curve, poor fit]"
O=C(Nc1ccc(S(=O)(=O)Nc2ncccn2)cc1)c1cccc(Br)c1,–,"inconclusive: 1.26 µM [activator, single point]"
COc1ccc(Cl)cc1N1CC(C(=O)Nc2nccs2)CC1=O (centres undefined),–,"inconclusive: 35.5 µM [inhibitor, single point]"
CC1CCN(CCNC(=O)c2ccc(Cn3c(SCc4ccccc4)nc4cccnc43)cc2)CC1,–,"inconclusive: 10 µM [inhibitor, partial curve, poor fit]"
COc1cc(C(=O)N2CCN(CCCc3ccccc3)CC2)cc(OC)c1OC,–,"inconclusive: 35.5 µM [inhibitor, single point]"

Compound,"activity change, negative = inhibition",Potency
COCC1CCN(C(=O)CCc2nnc(C3(c4ccc(Cl)cc4)CCC3)o2)CC1,inactive: 3.71%,–
CC(=O)/C(=N\Nc1ccc(Cl)cc1Cl)Sc1cccc2cccnc12,–,"inconclusive: 20.6 µM [inhibitor, partial curve, poor fit]"
Cc1oc(-c2cc(F)ccc2F)nc1CN1CCC(C(=O)N2CCOCC2)CC1,–,"inconclusive: 31.6 µM [activator, single point]"
COc1cccc(C2C(C(C)=O)=C(O)C(=O)N2Cc2ccco2)c1 (centres undefined),inactive: 5.24%,–
COc1ccc(C(CNC(=O)c2ccc(OCc3ccccc3)cc2)N2CCOCC2)cc1 (centres undefined),–,"inconclusive: 11.2 µM [inhibitor, partial curve, poor fit]"
N#Cc1ccc(CSc2nnc(-c3c[nH]c4ccccc34)n2-c2ccccc2)cc1,–,active: 2.51 µM
CCCS(=O)(=O)N1CCC(C(=O)NCCc2ccccc2)CC1,inactive: 11.4%,–
CN(C)c1nc(N)c2ncc(=S)[nH]c2n1,inactive: 1.58% [at 46.1 µM],–
O=C(NCCc1ccccc1)C1CCCN(S(=O)(=O)c2cccc3nsnc23)C1 (centres undefined),inactive: -6.27%,–
O=c1cc(O)nc(SCc2ccccc2)[nH]1,inactive: 14.3%,–
CNC(=O)c1sc(N2N=C3/C(=C/c4ccccc4)CCCC3C2c2ccccc2)nc1C (centres undefined),–,"inconclusive: 10.3 µM [inhibitor, partial curve, poor fit]"
COc1ccc(NC(=O)CSCC(=O)Nc2nnc(CC(C)C)s2)cc1,–,"inconclusive: 14.1 µM [activator, single point]"
CC(=O)N(c1cccc(C)c1)C1SC(=O)N(c2ccccc2)C1=O (centres undefined),–,"inconclusive: 1.26 µM [activator, single point]"
CCOc1ccc(/C=C2\SC(=S)N(CCC(=O)O)C2=O)cc1,–,"inconclusive: 20 µM [inhibitor, partial curve, poor fit]"
CC(NC(=O)CN1CCc2ccccc21)c1ccccc1 (centres undefined),inactive: -1.66%,–
CC(=O)c1ccc(NC(=O)NCCc2c[nH]c3ccccc23)cc1,inactive: 26.9% [at 46.1 µM],–
O=c1[nH]c(CN2CCN(S(=O)(=O)c3cccs3)CC2)nc2c(Br)cc(Br)cc12,inactive: -17.2% [at 46.1 µM],–
O=c1[nH]c(=S)[nH]c2nc(-c3ccccc3)cnc12,–,"inconclusive: 11.2 µM [activator, single point]"
Cc1cccc(OCC(=O)Nc2ccc(C(=O)NCC(C)C)cc2)c1,–,"inconclusive: 12.6 µM [inhibitor, single point]"
COc1ccc(Cc2nnc(N/N=C/c3ccc(O)cc3O)[nH]c2=O)cc1OC,–,"inconclusive: 29.1 µM [inhibitor, single point]"
O=c1c2ccccc2c(-c2ccccc2)nn1Cc1ccc(Cl)cc1,inactive: -27.6%,–
NC(=NC(=O)c1cccc(C(F)(F)F)c1)c1ccc(C(F)(F)F)cn1,–,"inconclusive: 0.112 µM [inhibitor, full curve, poor fit]"
O=C(/C=C/c1ccc(OC(F)F)cc1)Nc1cccc(S(=O)(=O)NC2=NCCCCC2)c1,–,"inconclusive: 28.2 µM [inhibitor, single point]"

Compound,"activity change, negative = inhibition",Potency
CCN(CC)CCCN(Cc1cc2cc3c(cc2[nH]c1=O)OCCO3)C(=O)Nc1ccccc1,–,"inconclusive: 35.5 µM [inhibitor, single point]"
O=C(COC(=O)/C=C/c1ccco1)NCc1ccccc1Cl,inactive: 7.74% [at 46.1 µM],–
O=c1cc(-c2cccc(F)c2)oc2ccccc12,inactive: 13.8% [at 46.1 µM],–
Cc1nn(Cc2ccc(F)cc2)c(C)c1NC(=O)c1cnn2c1NC(c1cccs1)CC2C(F)(F)F (centres undefined),–,"inconclusive: 10.3 µM [inhibitor, partial curve]"
CC(OC(=O)C1CC1C)C(=O)Nc1ccc(Cl)cn1 (centres undefined),–,"inconclusive: 1.12 µM [inhibitor, partial curve, poor fit]"
CCCCN1CC(O)=C(c2nc(-c3ccc(Br)cc3)cs2)C1=N,inactive: -10.9%,–
O=C(COc1ccc(F)cc1)Nc1ccc2nc(SCc3ccccc3)sc2c1,–,"inconclusive: 2.82 µM [inhibitor, partial curve, poor fit]"
CC(C)c1ccc(NC(=S)NN2CCOCC2)cc1,–,"inconclusive: 12.6 µM [activator, partial curve]"
COc1ccc(NC(=O)CSC2=C(C#N)C(c3ccco3)C3=C(CCCC3=O)N2)c(OC)c1 (centres undefined),–,"inactive and inconclusive: 12.6 µM [inhibitor, single point]"
O=C(Nc1cccc(C(F)(F)F)c1)c1ccc(Cn2cc(Br)cn2)o1,–,"inconclusive: 0.92 µM [inhibitor, partial curve, poor fit]"
CC1(C)Cc2ccccc2C(=O)N1,–,"inconclusive: 31.6 µM [activator, single point]"
O=C(COC(=O)c1ccc(F)c(S(=O)(=O)N2CCOCC2)c1)NCc1ccc(F)cc1,–,"inconclusive: 0.891 µM [inhibitor, full curve, poor fit]"
CCN(CC)C(=O)CSc1nc2ccccc2c(=O)n1CC1CCCCC1,–,"inconclusive: 35.5 µM [inhibitor, single point]"
CC1CCCC(C)N1C(=O)COC(=O)c1ccc([N+](=O)[O-])o1 (centres undefined),inactive: -0.307% [at 46.1 µM],–
O=S(=O)(c1ccc(Cl)cc1)N1CCN(C(=S)Nc2ccc(F)c(Cl)c2)CC1,–,"inconclusive: 17.8 µM [inhibitor, single point]"
O=C(Cc1cccs1)N1CCN(S(=O)(=O)c2cc(Cl)ccc2Cl)CC1,–,"inconclusive: 31.6 µM [activator, single point]"
COc1ccccc1CNC(=O)c1cccc(Nc2nc3ccccc3n3nnnc23)c1,inactive: 2.68% [at 46.1 µM],–
COc1ccccc1NC(=O)c1ccc(NS(=O)(=O)c2ccc(F)c(F)c2F)cc1,inactive: 34%,–
O=C(Nc1cccc2cccnc12)c1ccc(Cl)cc1,inactive: 2.21% [at 46.1 µM],–
CCCCSCCCNC(=O)C1CCC(CNS(=O)(=O)c2ccccc2)CC1 (centres undefined),–,"inconclusive: 20 µM [inhibitor, single point]"
COc1ccc(C(=O)CCN2CCc3cc(OC)c(OC)cc3C2)cc1,–,"inconclusive: 10 µM [inhibitor, partial curve, poor fit]"
O=C(NCC(c1ccco1)N1CCc2ccccc21)C(=O)Nc1ccccc1F (centres undefined),–,"inconclusive: 11.2 µM [inhibitor, partial curve, poor fit]"
CCCCSc1nnc([C@H](CC(C)C)NC(=O)OC(C)(C)C)o1,–,"inconclusive: 29.1 µM [inhibitor, single point]"

# Rewritten with bars between the fields: 5 of the compounds above
Compound | activity change, negative = inhibition | Potency
CCN(CC)CCCN(Cc1cc2cc3c(cc2[nH]c1=O)OCCO3)C(=O)Nc1ccccc1 | – | inconclusive: 35.5 µM [inhibitor, single point]
O=C(COC(=O)c1ccc(F)c(S(=O)(=O)N2CCOCC2)c1)NCc1ccc(F)cc1 | – | inconclusive: 0.891 µM [inhibitor, full curve, poor fit]
COc1ccccc1CNC(=O)c1cccc(Nc2nc3ccccc3n3nnnc23)c1 | inactive: 2.68% [at 46.1 µM] | –
O=C(Nc1cccc2cccnc12)c1ccc(Cl)cc1 | inactive: 2.21% [at 46.1 µM] | –
O=C(NCC(c1ccco1)N1CCc2ccccc21)C(=O)Nc1ccccc1F (centres undefined) | – | inconclusive: 11.2 µM [inhibitor, partial curve, poor fit]
